PubChem BioAssay AID686938 – Drosophila RNAi Screening Center – 2013

- Aim: 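Fly genes required for calcium entry once internal stores are emptied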 (primary screen)
- System: Drosophila S2R+ cells
- Reagent: long dsRNA against Drosophila genes, about 0.25 µg dsRNA per well, roughly 10,000 cells
- Duration: 5 days of knock-down before the calcium assay
- Conditions: thapsigargin (SERCA pump blocker) to empty calcium stores; entry signal taken 4 min after adding it
- Measurement: 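Duplicate raw fluo-4 intensities per well from a plate reader, at rest and four minutes after thapsigargin emptied calcium stores; entry-to-rest ratio filled for only some wells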
- Reading the numbers: calcium entry signal: higher = stronger calcium signal after store depletion; resting calcium signal: higher = higher resting calcium signal
- Active means: 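Hit if the duplicate-averaged plate z-score for entry over resting signal is under −3; wells with weak total dye signal (Fmax z < −2) or more than 5 off-targets removed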
- Calls: active = strongly reduced calcium entry; inactive = no strong reduction
The screen tested about 23,000 reagents; shown is a random part of those that have a named target and a result. Of all reagents, 75 (0.33%) are marked active. 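Raw plate signals without normalisation; calls rest on plate z-scores that were not deposited; ratio present for only 364 wells.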 Unmarked entries are inactive. Names joined by + are all predicted targets of the reagent. Not given: the dose of the treatment.

Knock-down of Tis11 (GeneID 32222) [DRSC20293] came out at: calcium entry signal, replicate 1 (fluorescence units) = 3.93e7; calcium entry signal, replicate 2 (fluorescence units) = 3.73e7; resting calcium signal, replicate 1 (fluorescence units) = 1.97e7; resting calcium signal, replicate 2 (fluorescence units) = 1.92e7. Tis11 (GeneID 32222) [DRSC23110] showed calcium entry signal, replicate 1 (fluorescence units) = 4.00e7; calcium entry signal, replicate 2 (fluorescence units) = 4.19e7; resting calcium signal, replicate 1 (fluorescence units) = 1.79e7; resting calcium signal, replicate 2 (fluorescence units) = 1.88e7. After knock-down of LysD + LysC (retired record) [DRSC08674] the results were calcium entry signal, replicate 1 (fluorescence units) = 2.76e7; calcium entry signal, replicate 2 (fluorescence units) = 3.14e7; resting calcium signal, replicate 1 (fluorescence units) = 1.41e7; resting calcium signal, replicate 2 (fluorescence units) = 1.51e7. With knock-down of LysD + LysC (retired record) [DRSC22743], the record shows calcium entry signal, replicate 1 (fluorescence units) = 4.29e7; calcium entry signal, replicate 2 (fluorescence units) = 4.00e7; resting calcium signal, replicate 1 (fluorescence units) = 2.30e7; resting calcium signal, replicate 2 (fluorescence units) = 1.90e7. With knock-down of CG34267 (GeneID 5740365) [DRSC07881], the screen gave calcium entry signal, replicate 1 (fluorescence units) = 3.79e7; calcium entry signal, replicate 2 (fluorescence units) = 4.98e7; resting calcium signal, replicate 1 (fluorescence units) = 2.06e7; resting calcium signal, replicate 2 (fluorescence units) = 2.26e7. Silencing of Tsen54 (GeneID 39397) [DRSC10527] gave: calcium entry signal, replicate 1 (fluorescence units) = 2.88e7; calcium entry signal, replicate 2 (fluorescence units) = 3.43e7; resting calcium signal, replicate 1 (fluorescence units) = 1.54e7; resting calcium signal, replicate 2 (fluorescence units) = 1.65e7.

With knock-down of CG32554 (GeneID 32767) [DRSC22713], the record shows calcium entry signal, replicate 1 (fluorescence units) = 3.16e7; calcium entry signal, replicate 2 (fluorescence units) = 2.86e7; resting calcium signal, replicate 1 (fluorescence units) = 1.81e7; resting calcium signal, replicate 2 (fluorescence units) = 1.30e7. For CG2258 (GeneID 31729) [DRSC18222], the entry reads calcium entry signal, replicate 1 (fluorescence units) = 3.00e7; calcium entry signal, replicate 2 (fluorescence units) = 2.33e7; resting calcium signal, replicate 1 (fluorescence units) = 1.35e7; resting calcium signal, replicate 2 (fluorescence units) = 1.10e7. For E23 (GeneID 43895) [DRSC00425] the deposit lists calcium entry signal, replicate 1 (fluorescence units) = 1.79e7; calcium entry signal, replicate 2 (fluorescence units) = 2.13e7; resting calcium signal, replicate 1 (fluorescence units) = 1.14e7; resting calcium signal, replicate 2 (fluorescence units) = 1.30e7. After knock-down of E23 (GeneID 43895) [DRSC00593], the record shows calcium entry signal, replicate 1 (fluorescence units) = 2.41e7; calcium entry signal, replicate 2 (fluorescence units) = 2.84e7; resting calcium signal, replicate 1 (fluorescence units) = 1.22e7; resting calcium signal, replicate 2 (fluorescence units) = 1.34e7. For RpS8 (GeneID 43532) [DRSC16318], the entry reads calcium entry signal, replicate 1 (fluorescence units) = 1.25e7; calcium entry signal, replicate 2 (fluorescence units) = 1.42e7; resting calcium signal, replicate 1 (fluorescence units) = 9.26e6; resting calcium signal, replicate 2 (fluorescence units) = 9.97e6. Dna2 (GeneID 31934) [DRSC18254] gave calcium entry signal, replicate 1 (fluorescence units) = 4.35e7; calcium entry signal, replicate 2 (fluorescence units) = 3.71e7; resting calcium signal, replicate 1 (fluorescence units) = 1.85e7; resting calcium signal, replicate 2 (fluorescence units) = 1.67e7.

Knock-down of CG34290 (GeneID 5740609) [DRSC13660] gave: calcium entry signal, replicate 1 (fluorescence units) = 3.91e7; calcium entry signal, replicate 2 (fluorescence units) = 4.08e7; resting calcium signal, replicate 1 (fluorescence units) = 1.80e7; resting calcium signal, replicate 2 (fluorescence units) = 2.14e7. After knock-down of CG14312 (GeneID 42195) [DRSC14791], the screen gave calcium entry signal, replicate 1 (fluorescence units) = 4.12e7; calcium entry signal, replicate 2 (fluorescence units) = 4.49e7; resting calcium signal, replicate 1 (fluorescence units) = 6.14e7; resting calcium signal, replicate 2 (fluorescence units) = 2.12e7. With knock-down of Spn28Db (GeneID 326261) [DRSC22033], the screen gave calcium entry signal, replicate 1 (fluorescence units) = 3.16e7; calcium entry signal, replicate 2 (fluorescence units) = 5.67e7; resting calcium signal, replicate 1 (fluorescence units) = 1.41e7; resting calcium signal, replicate 2 (fluorescence units) = 2.55e7. Silencing of CG18539 (GeneID 37096) [DRSC06766] came out at: calcium entry signal, replicate 1 (fluorescence units) = 4.61e7; calcium entry signal, replicate 2 (fluorescence units) = 6.95e7; resting calcium signal, replicate 1 (fluorescence units) = 2.08e7; resting calcium signal, replicate 2 (fluorescence units) = 3.23e7. Knock-down of CG31207 (GeneID 326125) [DRSC21886] came out at: calcium entry signal, replicate 1 (fluorescence units) = 2.44e7; calcium entry signal, replicate 2 (fluorescence units) = 3.76e7; resting calcium signal, replicate 1 (fluorescence units) = 1.19e7; resting calcium signal, replicate 2 (fluorescence units) = 2.11e7. Against PpD3 (GeneID 49779) [DRSC16796] the deposit lists calcium entry signal, replicate 1 (fluorescence units) = 3.97e7; calcium entry signal, replicate 2 (fluorescence units) = 3.46e7; resting calcium signal, replicate 1 (fluorescence units) = 1.95e7; resting calcium signal, replicate 2 (fluorescence units) = 1.79e7.

Depletion of CG32633 (GeneID 326225) [DRSC18987] gave: calcium entry signal, replicate 1 (fluorescence units) = 1.69e7; calcium entry signal, replicate 2 (fluorescence units) = 2.53e7; resting calcium signal, replicate 1 (fluorescence units) = 9.21e6; resting calcium signal, replicate 2 (fluorescence units) = 1.09e7. Depletion of Tb (GeneID 43212) [DRSC15815] gave: calcium entry signal, replicate 1 (fluorescence units) = 2.58e7; calcium entry signal, replicate 2 (fluorescence units) = 3.59e7; resting calcium signal, replicate 1 (fluorescence units) = 1.35e7; resting calcium signal, replicate 2 (fluorescence units) = 1.75e7. bcd + CR14578 [DRSC20984] showed calcium entry signal, replicate 1 (fluorescence units) = 5.46e7; calcium entry signal, replicate 2 (fluorescence units) = 4.14e7; resting calcium signal, replicate 1 (fluorescence units) = 2.30e7; resting calcium signal, replicate 2 (fluorescence units) = 1.67e7.

3 successive entries already listed, quoted:
CG34267 (GeneID 5740365) [DRSC07881]: calcium entry signal, replicate 1 (fluorescence units) = 3.79e7; calcium entry signal, replicate 2 (fluorescence units) = 4.98e7; resting calcium signal, replicate 1 (fluorescence units) = 2.06e7; resting calcium signal, replicate 2 (fluorescence units) = 2.26e7
Tsen54 (GeneID 39397) [DRSC10527]: calcium entry signal, replicate 1 (fluorescence units) = 2.88e7; calcium entry signal, replicate 2 (fluorescence units) = 3.43e7; resting calcium signal, replicate 1 (fluorescence units) = 1.54e7; resting calcium signal, replicate 2 (fluorescence units) = 1.65e7
CG32554 (GeneID 32767) [DRSC22713]: calcium entry signal, replicate 1 (fluorescence units) = 3.16e7; calcium entry signal, replicate 2 (fluorescence units) = 2.86e7; resting calcium signal, replicate 1 (fluorescence units) = 1.81e7; resting calcium signal, replicate 2 (fluorescence units) = 1.30e7
